The other results are listed elsewhere or left out.

The experiment addresses T1, OsSMF1 (Oryza sativa, UniProt Q6ZLB0 1-436).
T1 sequence: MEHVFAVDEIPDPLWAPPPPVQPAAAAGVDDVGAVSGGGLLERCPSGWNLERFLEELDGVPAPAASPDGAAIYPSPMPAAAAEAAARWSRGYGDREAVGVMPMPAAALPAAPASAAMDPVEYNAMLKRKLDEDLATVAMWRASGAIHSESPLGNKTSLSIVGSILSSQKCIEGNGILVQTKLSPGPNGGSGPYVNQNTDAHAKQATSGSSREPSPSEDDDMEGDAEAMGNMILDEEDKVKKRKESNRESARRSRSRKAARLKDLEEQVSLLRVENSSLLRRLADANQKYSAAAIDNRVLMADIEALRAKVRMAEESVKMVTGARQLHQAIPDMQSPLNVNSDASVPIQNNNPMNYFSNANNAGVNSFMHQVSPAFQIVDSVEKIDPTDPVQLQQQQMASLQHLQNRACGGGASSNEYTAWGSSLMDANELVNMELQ
Kind of experiment: protein-binding microarray (RPBM); PBS, 2% BSA, 51.3 ng/ul salmon testes DNA, 50 uM zinc acetate, 200 nM TF, 25 C, 1 h; high values mean tight binding. Particulars: protein: recombinant; tags: N-terminal polyhistidine and DsRed monomer fusion (pET32a); chain copies: 2; label: CyDye5-dUTP incorporated in the synthesized complementary strand; 3' TTTTT single-stranded linker to array surface; dsDNA, one strand shown. An outline of the steps: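 Ni–NTA purification followed expression in E. coli BL21-CodonPlus of transcription factors fused N-terminally to a polyhistidine tag and DsRed. At 200 nM in PBS with 2% BSA, salmon testes DNA and 50 µM zinc acetate, the protein was incubated for 1 h at 25 °C with a custom Agilent array that had been primer-extended with Cy5-dUTP and blocked with 2% BSA. After washing, the array was read on an Axon 4000B scanner. The binding signal is per-feature fluorescence intensity in arbitrary units.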
“CGTGCCGCTGGCTCTTGACACGCTATGCTGATCTGGCAGGCGGAGTCACCTAGTGCAG”: the binding signal is 14400 fluorescence intensity (a.u.).

Turning to “AACATGGAGTTTTCCTTTTCTTGGTTATGTCATGACATAACGGAGTCACCTAGTGCAG”, the binding signal is 3530 fluorescence intensity (a.u.).

In the case of “CCAGCGCGCGTTCACACATAGAGATGGATAGGGAGAGGGCCGGAGTCACCTAGTGCAG”, the binding signal is 26700 fluorescence intensity (a.u.).

Turning to “CAACTAAAACGTGTACTAGCATCTAGCAGTACGAACCAGCCGGAGTCACCTAGTGCAG”, the binding signal is 3720 fluorescence intensity (a.u.).

As for “TACATATCCAAGTGTAGAGGCGCCGTCAGAGAACTTATTACGGAGTCACCTAGTGCAG”, the binding signal is 38900 fluorescence intensity (a.u.).

In the case of “AATCCTACTAGTAAAATGCAATTCATGCTGGCAGTTGGGCCGGAGTCACCTAGTGCAG”, the binding signal was 22000 fluorescence intensity (a.u.).

Regarding “ATTCCGAGGCTTCCATTCTCTCTGTCAGACTTTGTCACCGCGGAGTCACCTAGTGCAG”, the binding signal was 4050 fluorescence intensity (a.u.).

As to “ATGGGAAAGTAAATCAATTAACATATATACTCGTTTAAAACGGAGTCACCTAGTGCAG”, the binding signal is 16500 fluorescence intensity (a.u.).

Consider “TCTCCCACGTCATCGTCGTCGTCGCCGCTGCCCTCCTCCTCGGAGTCACCTAGTGCAG”, for which the binding signal is 25200 fluorescence intensity (a.u.).

As for “AGTAGGGAAAGTTACAACGCAGCCTAACGTGGGATAGCGGCGGAGTCACCTAGTGCAG”, the binding signal was 3980 fluorescence intensity (a.u.).

On to “AGAGAGTAGTACTGTACGGTGACTAGGGTTGACTAGTCCCCGGAGTCACCTAGTGCAG”, for which the binding signal is 3930 fluorescence intensity (a.u.).

Take “CATGATGTGGAGAAGTTGACCAATGATCTTGCTGGCCTAGCGGAGTCACCTAGTGCAG”: the binding signal is 22400 fluorescence intensity (a.u.).

As for “GGGGATTACATCTGCCTAAGCAGCCGCGTGTCGATTTCGGCGGAGTCACCTAGTGCAG”, the binding signal is 3740 fluorescence intensity (a.u.).

As for “TGCCGCTAATCAGTGACGCAGAGTCACAAATGAACACCATCGGAGTCACCTAGTGCAG”, the binding signal was 3970 fluorescence intensity (a.u.).

On to “ACTTGTATCCGTCATGCCTGCATTCTAGTCACCATGTAGCCGGAGTCACCTAGTGCAG”, for which the binding signal is 4240 fluorescence intensity (a.u.).

With “GTCACCTTGGTACGTGTTCAATATGTTGCGCATATTTGATCGGAGTCACCTAGTGCAG”, the binding signal is 4370 fluorescence intensity (a.u.).

As to “AGTAGCACAATCTTCGTGTTGATTCATTCCTCCTGTGGTCCGGAGTCACCTAGTGCAG”, the binding signal is 3260 fluorescence intensity (a.u.).

On to “TAGACTTTAGCTGCCACTACACCTATGTTACGTATAGATGCGGAGTCACCTAGTGCAG”, for which the binding signal was 29300 fluorescence intensity (a.u.).

Regarding “AGTTTTACAATAAATTTACTGTTATAAATATACATTTAACCGGAGTCACCTAGTGCAG”, the binding signal is 10400 fluorescence intensity (a.u.).

Consider “CTGAATTTAGACACCTCAGCGCCACGTCAACTGGCGCTGACGGAGTCACCTAGTGCAG”, for which the binding signal is 18400 fluorescence intensity (a.u.).

On to “TCATCTGATGTCACACTCCCAATGAGTGAAGAATAATACTCGGAGTCACCTAGTGCAG”, for which the binding signal was 3450 fluorescence intensity (a.u.).

With “ATGCGGATCTGAGTGGTGGTGGTGGTGGACTGGTGGTTGCCGGAGTCACCTAGTGCAG”, the binding signal was 3760 fluorescence intensity (a.u.).

As to “ACCGGGCGGTAGTGTTAGGATGGTGTTTTCAACTGAAGCACGGAGTCACCTAGTGCAG”, the binding signal was 22600 fluorescence intensity (a.u.).

For the sequence “AATCGGTGTCGTTTTGCACGGCGTGTGCCACGTCAGCGTTCGGAGTCACCTAGTGCAG”, the binding signal is 52000 fluorescence intensity (a.u.).

As to “GAACGGCCGTCTGCCACGTCATTTTCGCCGCCCTCTGGGACGGAGTCACCTAGTGCAG”, the binding signal is 27000 fluorescence intensity (a.u.).

Turning to “TATGTCAATACTGTATGCATATATTAACATAAAATATCTCCGGAGTCACCTAGTGCAG”, the binding signal is 4760 fluorescence intensity (a.u.).

Take “ATTACTAATTTATGTGGTAATCGACCGCGTGCAAGAATTACGGAGTCACCTAGTGCAG”: the binding signal is 3150 fluorescence intensity (a.u.).

With “AACGAGACAATAATATGTCAGACATATCCATCTAGCTGCGCGGAGTCACCTAGTGCAG”, the binding signal is 4300 fluorescence intensity (a.u.).

“TGGCTAACCTCACTGCCACGCGTGCCCCACCCCAGTGGGACGGAGTCACCTAGTGCAG”: the binding signal was 6810 fluorescence intensity (a.u.).

“AAATCTGTGTCGATAGATGCCACATCTGCCGACCCTGCAACGGAGTCACCTAGTGCAG”: the binding signal was 6130 fluorescence intensity (a.u.).

For “ATCCTCAACTCAATCCCGACGAAATCCCCTTCGATTTGAGCGGAGTCACCTAGTGCAG”, the binding signal is 3290 fluorescence intensity (a.u.).

For the sequence “CGGGCTGGGCGAGCGCTGGGCGATGCCACGTCGGATAGGACGGAGTCACCTAGTGCAG”, the binding signal is 14700 fluorescence intensity (a.u.).

“GCTGTCGTCGTCGTTGCTGCCGTCGTCGTCACCGTCGTCGCGGAGTCACCTAGTGCAG”: the binding signal was 4340 fluorescence intensity (a.u.).

For the sequence “CGATCTCCCCTTTTGCCCTCCAACTTGACGCGTCAATGGACGGAGTCACCTAGTGCAG”, the binding signal was 4030 fluorescence intensity (a.u.).

In the case of “CGGCATGATGGCCTTCTCCATCACCTCCGCTGCGTCGGCGCGGAGTCACCTAGTGCAG”, the binding signal is 3150 fluorescence intensity (a.u.).

Take “AACATGATTTAACAGGTAACAGTCGCCCATGCCATTCTTGCGGAGTCACCTAGTGCAG”: the binding signal was 3350 fluorescence intensity (a.u.).

In the case of “GTTGTCCATGCCCCTGTTCTTATGAGTCACAGCGATTCAGCGGAGTCACCTAGTGCAG”, the binding signal is 7380 fluorescence intensity (a.u.).

Turning to “GCTGCCGCTGACTTCCGTCCCCTCCACGCTTGTCTCACTGCGGAGTCACCTAGTGCAG”, the binding signal is 3230 fluorescence intensity (a.u.).
